Measured values taken from US20070248536A1.

Key:
[1] = biological target: proNGF; assay: SDS PAGE of fractions of the SPC7-E9 affinity column, elution with glycine pH 2.2
[2] = biological target: proNGF; assay: affinity chromatography, SPC7-E9 coupled to Fractogel EMD Epoxy, elution with 0.1 M glycine pH 2.2
[3] = biological target: proNGF; assay: ELISA, plate coated with 10 µg/ml proNGF, detection with anti-human gamma-II-crystallin antibody-POD conjugate
[4] = biological target: proNGF; assay: affinity chromatography, SPC7-E9 coupled to Fractogel EMD Epoxy, 400 µg purified proNGF applied, elution with 0.1 M glycine pH 2.2
[5] = biological target: proNGF; assay: Biacore; by example 8 SPC7-E9 coupled by NHS/EDC to a CM5 chip and proNGF passed over it; the legend names a chip with proNGF

Measured: binding

B1: Affilin variation SPC7-E9 (designed binder)
chain: MGFICFLEDRAFQGRSYACDTDCPNLQPYFSRCNSISVLSGCWMIYERPNYQGHQYFLRRGEYPDYQQWMGLSDSIRSCCLIPPHSGAYRMKIYDRDELRGQMSELTDDCLSVQDRFHLTEIHSLNVLEGSWILYEMPNYRGRQYLLRPGEYRRFLDWGAPNAKVGSLRRVMDLYLEHHHHHH
binds: all assays above

Results are given in words; binding and its absence hold for the method and conditions named. Binding can be weak; no strength is given.
